pIC50: −log10 of the molar value. For part of these data: At least one peptide structure holds a part that was inferred or is arguable (an end, a ring closure or a residue). For part of these data: For at least one compound, name, drawing or mass did not settle the structure. Peptide text beside a SMILES is read from it. * marks the point of attachment. X1 = O=C(O)C(C(=O)O)*
What was measured:
[1] = biological target: C-terminal SH2 domain of PI 3-kinase p85 (Homo sapiens, UniProt P27986); test: SH2 domain competition binding assay, PI 3-kinase p85 C-terminal SH2
Description: (§1) Details of the […] domain competition assay are described by Piccione, E., et al., Biochemistry 32:3197-3202 (1993). Briefly, four distinct assays were used to determine relative SH2 domain affinities for pTyr analogues vs. high affinity phosphopeptide ligands. In each assay a glutathione S-transferase (GST)/SH2 domain fusion protein was paired with an appropriate high-affinity [^125 I]Bolton-Hunter radiolabeled phosphopeptide, and varying concentrations of unlabeled peptides were added as competitors. The C-terminal SH2 domain of PI 3-kinase p85 was paired with IRS-1pY628, GNGDpYMPMSPK (SEQ ID NO. 5) (See Piccione, E., et al., Biochemistry 32:3197-3202 (1993)), the Src SH2 domain was paired with hmt pY324, KEPQpYEEIPIYL (SEQ ID NO. 6) (See Payne, G., et al., Proc. Natl. Acad. Sci. USA 90:4902-4906 (1993), the PLCγ-C SH2 domain was paired with PDGF pY1021, DNDpYIIPLPDPK (SEQ ID NO. 7) (See Piccione, E., et al., Biochemistry 32:3197-3202 (1993)), and the Lck SH2 domain was paired with the hmTpY324 sequence similar to assays conducted on the Src SH2 domain. An underline denotes the position of the [^125 I]Bolton-Hunter modified lysine. […] Following centrifugation for 5 min at 12,000 g, supematant solutions were removed by aspiration and [^125 I]radioactivity associated with the unwashed pellets was determined with a γ-counter.

Protein sequences, listed by entry. Tags and fused reporters are not part of them. Residues count along the entry.
UniProt P27986, 624-718 limits assumed: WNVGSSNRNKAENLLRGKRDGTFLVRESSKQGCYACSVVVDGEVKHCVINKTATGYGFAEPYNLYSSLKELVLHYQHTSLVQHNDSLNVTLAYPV
UniProt P62993, 60-152 limits assumed: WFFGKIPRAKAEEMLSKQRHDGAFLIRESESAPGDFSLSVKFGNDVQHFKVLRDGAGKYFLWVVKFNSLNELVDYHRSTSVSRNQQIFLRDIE

Src SH2 domain = biological target: T1, Src SH2 domain (Homo sapiens, UniProt P12931); test: SH2 domain competition binding assay, Src SH2
T1 construct: the Src SH2 domain was paired with hmt pY324
Description: as §1

Grb2 SH2 domain = biological target: T2, Grb2 SH2 domain (Homo sapiens, UniProt P62993); test: SH2 domain competition binding assay, Grb2 SH2; conditions: X = L-OMT; read-out: IC50 ± S.E., Grb2 SH2 domain
T2 construct: against the Grb2 SH2 domain construct

`CSCC[C@H](NC(=O)[C@@H]1CCCN1C(=O)[C@@H](NC(=O)[C@H](Cc1ccc(OC(C(=O)O)C(=O)O)cc1)NC(=O)[C@H](CC(=O)O)NC(C)=O)C(C)C)C(=O)N[C@@H](CC(C)C)C(N)=O` [peptide no. 6, Ac-Asp-[L-OMT]-Val-Pro-Met-Leu-amide] (Ac-DY(X1)VPML-NH2) was tested, and the “loss of potency relative to either the pTyr or F2 Pmp peptides” value [1] was 200 fold.
`CC[C@H](C)[C@H](NC(=O)[C@H](CCC(=O)O)NC(=O)[C@H](CCC(=O)O)NC(=O)[C@H](Cc1ccc(OC(C(=O)O)C(=O)O)cc1)NC(=O)[C@H](CCC(N)=O)NC(C)=O)C(=O)N1CCC[C@H]1C(N)=O` [peptide no. 7, Ac-Gln-[L-OMT]-Glu-Glu-Ile-Pro-amide] (Ac-QY(X1)EEIP-NH2) was tested, and the “activity in Src binding assay” value (Src SH2 domain) was “essentially inactive”.
Compound `CC[C@H](C)[C@H](NC(=O)[C@H](CC(N)=O)NC(=O)[C@@H](NC(=O)[C@H](Cc1ccc(OC(C(=O)O)C(=O)O)cc1)NC(=O)[C@H](CC(N)=O)NC(C)=O)C(C)C)C(=O)N[C@@H](CCC(=O)O)C(N)=O` [peptide no. 8, Ac-Asn-[L-OMT]-Val-Asn-Ile-Glu-amide] (Ac-NY(X1)VNIE-NH2) has a pIC50 (Grb2 SH2 domain) of less than 3.22.

Source: patent US5688992A, “O-malonyltryrosyl compounds, O-malonyltryrosyl compound-containing peptides, and use thereof” (The United States of America as represented by the …, priority 1995, dated 1997)
